{"sequences": {"note": "Chains of the proteins cited; added tags and fusions are not shown.", "UniProt O42478": "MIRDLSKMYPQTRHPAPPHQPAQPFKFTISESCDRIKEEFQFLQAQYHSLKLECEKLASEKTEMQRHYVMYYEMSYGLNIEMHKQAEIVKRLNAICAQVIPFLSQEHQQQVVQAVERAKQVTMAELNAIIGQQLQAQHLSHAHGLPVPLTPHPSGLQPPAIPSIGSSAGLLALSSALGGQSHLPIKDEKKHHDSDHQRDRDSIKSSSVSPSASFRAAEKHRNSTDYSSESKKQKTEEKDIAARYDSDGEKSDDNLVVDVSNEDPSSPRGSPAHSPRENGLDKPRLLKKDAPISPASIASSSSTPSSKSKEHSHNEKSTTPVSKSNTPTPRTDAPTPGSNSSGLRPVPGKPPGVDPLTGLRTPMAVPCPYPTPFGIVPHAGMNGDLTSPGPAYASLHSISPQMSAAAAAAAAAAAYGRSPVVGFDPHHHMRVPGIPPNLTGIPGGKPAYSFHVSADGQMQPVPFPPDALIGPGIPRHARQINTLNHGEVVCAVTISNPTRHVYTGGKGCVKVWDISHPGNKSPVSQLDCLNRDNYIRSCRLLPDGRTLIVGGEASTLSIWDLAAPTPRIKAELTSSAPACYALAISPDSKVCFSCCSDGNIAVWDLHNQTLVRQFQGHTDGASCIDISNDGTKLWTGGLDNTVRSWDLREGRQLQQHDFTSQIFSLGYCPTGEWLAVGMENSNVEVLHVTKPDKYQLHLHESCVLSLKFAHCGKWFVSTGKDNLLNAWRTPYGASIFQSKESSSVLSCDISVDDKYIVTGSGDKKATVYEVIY"}, "source": "paper doi:10.1101/2023.05.25.542248", "molecular_target": "T1, mBarhl1-Myc (mouse BarH-like 1 homeobox protein, Myc-tagged) (mouse) (UniProt P63157)", "T1 sequence": "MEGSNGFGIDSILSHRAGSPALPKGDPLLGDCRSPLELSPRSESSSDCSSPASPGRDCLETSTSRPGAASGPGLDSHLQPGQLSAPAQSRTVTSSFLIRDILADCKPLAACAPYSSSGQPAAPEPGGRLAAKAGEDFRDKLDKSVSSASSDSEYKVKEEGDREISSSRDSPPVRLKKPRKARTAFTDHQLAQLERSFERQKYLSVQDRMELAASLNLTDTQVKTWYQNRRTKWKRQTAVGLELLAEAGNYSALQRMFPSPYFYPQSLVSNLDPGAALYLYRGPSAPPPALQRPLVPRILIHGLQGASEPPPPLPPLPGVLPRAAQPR", "test": "co-IP", "note": "No constants are given. Whether binding was seen depends on the method and setting. Binding seen in cells or lysates may run through a third protein. Some results given as binding are weak or reduced against the parent protein; the word gives no strength. Sequences can lack the tags named with a protein."}
{"substance": "Groucho 4 (Gro4), tagged (from UniProt O42478 1-772)", "values": [{"measurement": "binding", "result": "binds"}]}
